Data as given in PubChem BioAssay AID504771 (Drosophila RNAi Screening Center, 2011).

- Assay: 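Genes whose knock-down alters aggregation of mutant huntingtin with 46 glutamines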 (follow-up of hits)
- Cells: Drosophila S2 cells with copper-inducible mutant huntingtin exon 1 (46 glutamines)-eGFP
- Reagent: long dsRNA against Drosophila genes, 250 ng dsRNA per well
- Time to read-out: 3 days of knock-down, then 2 days of copper induction before fixing
- Challenge: copper sulfate at 400 µM to switch on Htt-Q46-eGFP expression
- Detection: 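Per-well count, size and brightness of GFP aggregates from automated images, set against plate mean and SD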
- Call rule: 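Primary candidate if any aggregate measure lay more than 2 SD from the plate mean; active only if it then passed checks for off-target effects, reproducibility, independent dsRNAs and a promoter counter-screen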
- Meaning of the calls: active = confirmed modifier; inactive = primary candidate not confirmed
Only reagents picked out of a larger screen are listed. 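All genes were primary candidates; inactive means validation failed, not no effect; aggregate scores behind calls are not deposited.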 Unmarked entries are inactive. Names joined by + are all predicted targets of the reagent. Reagent sequences are not shown.

no.	gene	PubChem SID	aggregation phenotype
1	FLASH (FLICE-associated huge protein)	SID104186664	knock-down raises aggregates
2	RpL5 (Ribosomal protein L5)	SID104183593	knock-down lowers aggregates
3	Rrp46	SID104195329	knock-down lowers aggregates
4	COX4 (Cytochrome c oxidase subunit 4)	SID104181883	knock-down lowers aggregates
5	scaf6 (SR-related CTD associated factor 6)	SID104190470	knock-down lowers aggregates
6	RpS15Aa + RpS15Ab	SID104185921	knock-down lowers aggregates
7	RpS15Aa + RpS15Ab	SID104199623	knock-down lowers aggregates
8	APC4 (Anaphase Promoting Complex subunit 4)	SID104198152	knock-down lowers aggregates
9	Muc4B (Mucin 4B)	SID104197854	knock-down raises aggregates
10	Noc3 (Nucleolar complex protein 3)	SID104192327	knock-down lowers aggregates
11	Srlp (Spliceosome-ribosome linker protein)	SID104195682	knock-down lowers aggregates
12	Nop56	SID104194491	knock-down lowers aggregates
13	Polr2C (RNA polymerase II subunit C)	SID104183207	knock-down lowers aggregates
14	ACC (Acetyl-CoA carboxylase)	SID104187041	knock-down lowers aggregates
15	Polr1D + DCTN6-p27	SID104181886	knock-down lowers aggregates
16	Pif1A + Pif1B	SID104194172	knock-down lowers aggregates
17	Polr3B (RNA polymerase III subunit B)	SID104187328	knock-down lowers aggregates

Continued; the last 2 above are carried over.
no.	gene	PubChem SID	aggregation phenotype
16	Pif1A + Pif1B	SID104194172	knock-down lowers aggregates
17	Polr3B (RNA polymerase III subunit B)	SID104187328	knock-down lowers aggregates
18	rin (rasputin)	SID104196837	knock-down raises aggregates (active)
19	Non1 (Novel nucleolar protein 1)	SID104185746	knock-down lowers aggregates
20	CG31687 + Cdc23	SID104202409	knock-down lowers aggregates
21	MED17 (Mediator complex subunit 17)	SID104196681	knock-down lowers aggregates
22	MED4 (Mediator complex subunit 4)	SID104190806	knock-down lowers aggregates
23	Prosbeta2 (Proteasome beta2 subunit)	SID104191049	knock-down lowers aggregates
24	IntS3 (Integrator 3)	SID104201007	knock-down raises aggregates
25	lilli (lilliputian)	SID104180500	knock-down lowers aggregates (active)
26	Fib (Fibrillarin)	SID104184406	knock-down lowers aggregates
27	TH1	SID104200081	knock-down raises aggregates (active)
28	CkIIbeta (Casein kinase II beta subunit)	SID104200022	knock-down lowers aggregates (active)
29	Cdc45 (Cell division cycle 45)	SID104197539	knock-down may raise aggregates
30	Nacalpha (Nascent polypeptide associated complex protein alpha subunit)	SID104187269	knock-down lowers aggregates
31	mRpL1 (mitochondrial ribosomal protein L1)	SID104196043	knock-down lowers aggregates
32	Nelf-E (Negative elongation factor E)	SID104190359	knock-down raises aggregates (active)
33	RpL11 (Ribosomal protein L11)	SID104187329	knock-down lowers aggregates
34	CG7483	SID104201903	knock-down lowers aggregates
35	Ars2 (Arsenic resistance protein 2)	SID104184685	knock-down lowers aggregates
36	CG2182	SID104192100	knock-down lowers aggregates
37	Ran	SID104200156	knock-down lowers aggregates
38	ps (pasilla)	SID104196180	knock-down lowers aggregates
39	CG7394	SID104190627	knock-down raises aggregates
40	CG18367	SID104186337	knock-down raises aggregates
41	bab1 (bric a brac 1)	SID104188501	knock-down lowers aggregates
42	MED24 (Mediator complex subunit 24)	SID104190736	knock-down lowers aggregates
43	Taf9 (TBP-associated factor 9)	SID104200118	knock-down raises aggregates (active)
44	CG33695 + cana	SID104180955	knock-down lowers aggregates
45	Saf6 (SAGA factor-like TAF6)	SID104180425	knock-down raises aggregates
